Laboratory results as given in publication PMC10774338.
Positions count from the first letter of the chain named. No constants are given. Whether binding was seen depends on the method and setting. Binding seen in cells or lysates may run through a third protein. Some binding calls cover weakened binding; strength is not graded here. Sequences can lack the tags named with a protein.

Sequences of proteins named here, by UniProt entry; tags and fusion partners are left off.
UniProt P62491: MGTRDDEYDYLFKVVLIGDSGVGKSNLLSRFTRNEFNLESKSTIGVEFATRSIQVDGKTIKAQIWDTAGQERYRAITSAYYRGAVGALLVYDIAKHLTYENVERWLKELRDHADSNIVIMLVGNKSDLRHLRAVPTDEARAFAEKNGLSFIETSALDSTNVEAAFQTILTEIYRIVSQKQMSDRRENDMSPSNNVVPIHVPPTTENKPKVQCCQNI

Key:
Test in all cases: co-IP; GFP-RAB11A and Myc-WDR44 wild-type or variant coexpressed in 293T for 48 h; Myc-tagged proteins immunoprecipitated from lysate (150 mM NaCl, 20 mM Tris HCl pH 8.0, 10% glycerol, 1% Triton X-100; Protein G Sepharose), blots probed for GFP and Myc; also done after 3 h and 24 h serum starvation (wild-type, G782C, S764F)
[1] = biological target: T1, Myc-tagged WDR44 G782C (human) (UniProt Q5JSH3)
T1 sequence: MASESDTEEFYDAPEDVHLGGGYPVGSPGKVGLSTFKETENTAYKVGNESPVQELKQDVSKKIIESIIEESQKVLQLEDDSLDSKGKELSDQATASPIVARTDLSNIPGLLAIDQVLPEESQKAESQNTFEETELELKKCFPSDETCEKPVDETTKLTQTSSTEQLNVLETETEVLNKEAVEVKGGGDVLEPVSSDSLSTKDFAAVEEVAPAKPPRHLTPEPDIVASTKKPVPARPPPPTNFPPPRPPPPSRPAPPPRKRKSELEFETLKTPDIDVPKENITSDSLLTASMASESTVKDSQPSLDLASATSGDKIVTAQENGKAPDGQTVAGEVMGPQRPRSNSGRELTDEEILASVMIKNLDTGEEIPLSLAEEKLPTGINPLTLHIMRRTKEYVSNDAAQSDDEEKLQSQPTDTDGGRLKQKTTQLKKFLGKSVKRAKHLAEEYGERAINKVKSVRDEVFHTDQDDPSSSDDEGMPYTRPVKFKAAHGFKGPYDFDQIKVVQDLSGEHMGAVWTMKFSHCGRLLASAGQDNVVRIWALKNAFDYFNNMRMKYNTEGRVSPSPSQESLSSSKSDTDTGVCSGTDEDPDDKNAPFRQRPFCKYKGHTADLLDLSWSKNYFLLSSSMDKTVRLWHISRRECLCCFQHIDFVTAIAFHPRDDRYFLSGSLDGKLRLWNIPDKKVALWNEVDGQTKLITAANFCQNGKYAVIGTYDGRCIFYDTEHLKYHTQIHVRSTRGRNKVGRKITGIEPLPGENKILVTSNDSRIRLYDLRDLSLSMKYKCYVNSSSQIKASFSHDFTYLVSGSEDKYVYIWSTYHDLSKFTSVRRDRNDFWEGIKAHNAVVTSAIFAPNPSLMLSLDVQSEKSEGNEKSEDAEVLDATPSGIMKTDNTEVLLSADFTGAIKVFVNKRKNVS

[2] = biological target: T2, Myc-tagged WDR44 L668S (human) (UniProt Q5JSH3)
T2 sequence: T1 sequence with L668S, C782G

[3] = biological target: T3, Myc-tagged WDR44 R733* (human) (UniProt Q5JSH3)
T3 sequence: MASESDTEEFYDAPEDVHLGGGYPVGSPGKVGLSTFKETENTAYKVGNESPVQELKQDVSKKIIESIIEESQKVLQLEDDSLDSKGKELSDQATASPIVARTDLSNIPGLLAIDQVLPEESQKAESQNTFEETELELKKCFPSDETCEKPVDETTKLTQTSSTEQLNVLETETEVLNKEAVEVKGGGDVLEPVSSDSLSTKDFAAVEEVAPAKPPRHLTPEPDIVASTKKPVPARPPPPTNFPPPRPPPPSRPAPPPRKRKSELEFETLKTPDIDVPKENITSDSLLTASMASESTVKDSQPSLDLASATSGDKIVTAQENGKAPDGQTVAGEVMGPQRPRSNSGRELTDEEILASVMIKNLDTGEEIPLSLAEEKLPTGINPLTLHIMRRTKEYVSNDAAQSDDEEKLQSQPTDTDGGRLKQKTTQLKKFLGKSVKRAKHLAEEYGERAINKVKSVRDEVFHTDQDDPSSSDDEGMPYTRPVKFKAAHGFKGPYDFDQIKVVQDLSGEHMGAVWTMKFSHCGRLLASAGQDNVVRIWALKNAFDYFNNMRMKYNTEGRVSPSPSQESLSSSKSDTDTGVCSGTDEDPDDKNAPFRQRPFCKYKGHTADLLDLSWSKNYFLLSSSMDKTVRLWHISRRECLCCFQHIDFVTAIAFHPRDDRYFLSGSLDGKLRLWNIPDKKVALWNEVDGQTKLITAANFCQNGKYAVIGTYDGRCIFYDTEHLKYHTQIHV

Measured: binding

GFP-tagged RAB11A (from UniProt P62491 1-216)
binds: all assays above
